From patent US20150232572A1
Results are given in words; binding and its absence hold for the method and conditions named. Some results given as binding are weak or reduced against the parent protein; the word gives no strength.

Key:
[1] = molecular target: T1, recombinant catalytic domain of MT4-MMP (MT4-CAT) (Homo sapiens (Human)) (UniProt Q9ULZ9); assay: ELISA, 0-3 µg MT4-CAT immobilized per well, anti-myc detection, A450
T1 sequence: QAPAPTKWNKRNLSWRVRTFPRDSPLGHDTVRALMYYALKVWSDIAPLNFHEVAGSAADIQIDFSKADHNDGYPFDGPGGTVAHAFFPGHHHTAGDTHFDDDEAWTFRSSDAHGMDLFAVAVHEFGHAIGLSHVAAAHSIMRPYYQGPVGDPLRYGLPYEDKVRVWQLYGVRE

[2] = molecular target: recombinant MT4-MMP inactive mutated form (E249A) (Homo sapiens (Human)) (UniProt Q9ULZ9); assay: ELISA (FIG. 14 C)
[3] = molecular target: recombinant wild-type MT4-MMP (Homo sapiens (Human)) (UniProt Q9ULZ9); assay: ELISA (FIG. 14 C)
[4] = molecular target: T1, recombinant catalytic domain of MT4-MMP (MT4-CAT) (Homo sapiens (Human)); assay: ELISA on immobilized MT4-CAT (FIG. 14 B)
[5] = molecular target: recombinant wild-type MT4-MMP (Homo sapiens (Human)) (UniProt Q9ULZ9); assay: phage display selection and screening; assay not specified
[6] = molecular target: T1, recombinant catalytic domain of MT4-MMP (MT4-CAT) (Homo sapiens (Human)); assay: ELISA on different concentrations of recombinant MT4-MMP coated in 96 well plates (MT4-CAT per paragraph 200)
[7] = molecular target: recombinant MT4-MMP inactive mutated form (E249A) (Homo sapiens (Human)) (UniProt Q9ULZ9); assay: Western blot, scFv detected by anti-myc
[8] = molecular target: recombinant wild-type MT4-MMP (Homo sapiens (Human)) (UniProt Q9ULZ9); assay: Western blot, scFv detected by anti-myc
[9] = molecular target: recombinant MT4-MMP inactive mutated form (E249A) (Homo sapiens (Human)) (UniProt Q9ULZ9); assay: ELISA, 3 µg recombinant protein
[10] = molecular target: recombinant wild-type MT4-MMP (Homo sapiens (Human)) (UniProt Q9ULZ9); assay: ELISA, 3 µg recombinant protein

Measured: binding

B1: K4H7 scFv antibody (scFv)
scFv: QVQLVQSGGGLVKPGRSLRLSCTASGFTFGDYAMSWFRQAPGKGLEWVGFIRSKAYGGTTEYAASVKGRFTISRDDSKSIAYLQMNSLKTEDTAVYYCTRGSSGWFLNWFDPWGQGTLVTVSSLEGGGGSGGGGSGGGGSELETTLTQSPATLSLSPGERATLSCRASQSISSSYLAWYQHKPGQAPRLLIYGASRRATGIPDRFSGSGSGTDFSLTISRLEPEDFAVYYCLHYGSSKWTFGQGTKVEIKR
binds: all assays above
